We go through 10 targets from the supplement of paper PMC7666118.

By UniProt entry, the sequences of proteins in these tests, tags left out. Where a name states a change or a piece, a line headed by the entry shows the natural chain unless it says otherwise.
UniProt O00425, whole entry: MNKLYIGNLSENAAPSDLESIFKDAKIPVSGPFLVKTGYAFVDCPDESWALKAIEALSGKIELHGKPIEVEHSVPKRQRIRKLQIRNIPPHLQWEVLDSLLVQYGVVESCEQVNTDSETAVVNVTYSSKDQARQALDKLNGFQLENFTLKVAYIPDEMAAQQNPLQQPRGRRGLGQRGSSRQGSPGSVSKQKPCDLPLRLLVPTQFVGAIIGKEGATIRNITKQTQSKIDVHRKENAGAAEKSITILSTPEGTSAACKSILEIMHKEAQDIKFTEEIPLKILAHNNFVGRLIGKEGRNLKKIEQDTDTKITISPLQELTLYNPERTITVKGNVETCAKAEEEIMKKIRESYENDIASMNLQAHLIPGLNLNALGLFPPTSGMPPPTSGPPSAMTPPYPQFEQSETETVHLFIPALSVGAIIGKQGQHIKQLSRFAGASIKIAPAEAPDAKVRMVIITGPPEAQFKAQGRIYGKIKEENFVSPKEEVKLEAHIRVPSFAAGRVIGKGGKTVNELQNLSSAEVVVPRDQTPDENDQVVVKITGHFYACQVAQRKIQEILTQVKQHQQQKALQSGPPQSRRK
UniProt Q07866: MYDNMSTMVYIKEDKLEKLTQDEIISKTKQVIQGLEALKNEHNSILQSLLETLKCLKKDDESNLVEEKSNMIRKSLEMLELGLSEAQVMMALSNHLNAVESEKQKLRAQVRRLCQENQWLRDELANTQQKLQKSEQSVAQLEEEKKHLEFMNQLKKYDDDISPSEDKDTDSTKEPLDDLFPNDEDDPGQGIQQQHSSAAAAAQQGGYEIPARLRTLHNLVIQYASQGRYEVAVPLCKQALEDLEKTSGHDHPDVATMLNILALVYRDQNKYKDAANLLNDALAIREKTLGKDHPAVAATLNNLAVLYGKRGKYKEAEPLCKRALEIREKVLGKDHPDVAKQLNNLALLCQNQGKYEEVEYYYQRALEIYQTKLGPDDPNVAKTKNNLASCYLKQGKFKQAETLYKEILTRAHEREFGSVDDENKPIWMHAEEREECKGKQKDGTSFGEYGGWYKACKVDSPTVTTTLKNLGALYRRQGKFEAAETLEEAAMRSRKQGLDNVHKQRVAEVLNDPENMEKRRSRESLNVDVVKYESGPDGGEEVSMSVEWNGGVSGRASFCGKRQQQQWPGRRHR
UniProt P11717, whole entry: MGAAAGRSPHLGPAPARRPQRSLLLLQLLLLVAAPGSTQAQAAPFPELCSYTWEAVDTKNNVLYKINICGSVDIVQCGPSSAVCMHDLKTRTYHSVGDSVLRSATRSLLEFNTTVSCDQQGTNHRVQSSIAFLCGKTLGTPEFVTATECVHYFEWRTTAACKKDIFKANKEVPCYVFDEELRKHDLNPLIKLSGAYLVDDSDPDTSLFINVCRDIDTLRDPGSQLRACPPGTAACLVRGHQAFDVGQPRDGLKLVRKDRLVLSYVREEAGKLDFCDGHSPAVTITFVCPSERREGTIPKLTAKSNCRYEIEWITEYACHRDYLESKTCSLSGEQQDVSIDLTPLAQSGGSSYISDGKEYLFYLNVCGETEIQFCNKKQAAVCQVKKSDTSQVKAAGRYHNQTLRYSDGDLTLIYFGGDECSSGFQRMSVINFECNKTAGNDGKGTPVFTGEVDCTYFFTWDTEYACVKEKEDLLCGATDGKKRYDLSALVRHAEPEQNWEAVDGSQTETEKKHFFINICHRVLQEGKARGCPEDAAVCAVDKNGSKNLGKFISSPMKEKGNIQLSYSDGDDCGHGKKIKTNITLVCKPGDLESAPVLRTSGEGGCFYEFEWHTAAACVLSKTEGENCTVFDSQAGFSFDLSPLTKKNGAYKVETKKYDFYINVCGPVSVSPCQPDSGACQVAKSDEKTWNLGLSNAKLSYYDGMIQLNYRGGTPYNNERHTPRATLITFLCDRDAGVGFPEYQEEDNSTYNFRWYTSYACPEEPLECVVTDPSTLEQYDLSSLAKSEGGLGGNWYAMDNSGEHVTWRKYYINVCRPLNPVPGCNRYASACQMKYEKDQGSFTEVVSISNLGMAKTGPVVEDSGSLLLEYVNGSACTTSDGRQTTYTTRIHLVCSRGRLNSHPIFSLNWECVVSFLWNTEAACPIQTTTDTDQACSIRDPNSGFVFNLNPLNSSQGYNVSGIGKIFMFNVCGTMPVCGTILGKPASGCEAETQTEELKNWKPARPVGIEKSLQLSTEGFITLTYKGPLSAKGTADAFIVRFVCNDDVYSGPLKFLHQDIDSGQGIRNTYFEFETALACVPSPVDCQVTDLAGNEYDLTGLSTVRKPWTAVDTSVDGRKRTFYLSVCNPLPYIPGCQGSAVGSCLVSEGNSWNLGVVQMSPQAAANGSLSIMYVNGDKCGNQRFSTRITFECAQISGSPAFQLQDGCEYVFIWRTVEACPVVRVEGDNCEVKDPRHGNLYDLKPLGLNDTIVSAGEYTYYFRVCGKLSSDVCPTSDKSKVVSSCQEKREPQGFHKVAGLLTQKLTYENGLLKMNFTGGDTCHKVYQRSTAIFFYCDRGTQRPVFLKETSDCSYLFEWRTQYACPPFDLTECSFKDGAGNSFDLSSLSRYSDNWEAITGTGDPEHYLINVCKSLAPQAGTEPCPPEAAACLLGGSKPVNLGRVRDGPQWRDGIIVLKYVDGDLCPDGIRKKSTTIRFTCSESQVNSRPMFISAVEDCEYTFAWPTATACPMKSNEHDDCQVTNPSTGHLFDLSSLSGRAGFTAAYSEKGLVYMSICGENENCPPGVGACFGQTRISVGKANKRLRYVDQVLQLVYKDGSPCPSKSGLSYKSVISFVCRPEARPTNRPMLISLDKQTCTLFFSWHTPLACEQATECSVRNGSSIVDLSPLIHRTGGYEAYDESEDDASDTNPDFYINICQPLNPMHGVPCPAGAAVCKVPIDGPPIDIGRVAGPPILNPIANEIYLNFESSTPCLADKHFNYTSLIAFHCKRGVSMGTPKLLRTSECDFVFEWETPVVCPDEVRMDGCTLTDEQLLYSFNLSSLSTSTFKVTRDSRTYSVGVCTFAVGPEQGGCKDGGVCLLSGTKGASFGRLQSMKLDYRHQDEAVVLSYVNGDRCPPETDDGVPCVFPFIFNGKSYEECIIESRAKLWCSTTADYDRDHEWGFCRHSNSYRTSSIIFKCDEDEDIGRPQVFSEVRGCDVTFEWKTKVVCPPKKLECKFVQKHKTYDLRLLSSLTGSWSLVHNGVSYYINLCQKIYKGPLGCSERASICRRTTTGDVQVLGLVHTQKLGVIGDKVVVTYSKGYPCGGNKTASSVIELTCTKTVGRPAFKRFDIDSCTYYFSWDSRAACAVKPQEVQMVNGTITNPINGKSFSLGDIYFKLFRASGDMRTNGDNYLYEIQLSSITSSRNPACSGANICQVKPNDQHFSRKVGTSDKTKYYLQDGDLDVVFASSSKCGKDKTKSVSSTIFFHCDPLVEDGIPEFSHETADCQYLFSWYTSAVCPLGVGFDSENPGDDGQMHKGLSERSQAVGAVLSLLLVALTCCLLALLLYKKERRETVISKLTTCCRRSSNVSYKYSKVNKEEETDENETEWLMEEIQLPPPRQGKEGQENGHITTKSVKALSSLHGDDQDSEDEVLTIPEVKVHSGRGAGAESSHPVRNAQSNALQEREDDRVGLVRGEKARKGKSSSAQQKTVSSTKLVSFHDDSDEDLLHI
UniProt Q96AB3: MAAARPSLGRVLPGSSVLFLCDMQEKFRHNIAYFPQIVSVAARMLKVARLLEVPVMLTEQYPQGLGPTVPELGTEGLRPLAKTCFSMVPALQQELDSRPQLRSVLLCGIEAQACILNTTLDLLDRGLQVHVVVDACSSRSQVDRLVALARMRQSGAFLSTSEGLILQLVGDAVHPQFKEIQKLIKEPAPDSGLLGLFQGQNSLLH
UniProt P29218: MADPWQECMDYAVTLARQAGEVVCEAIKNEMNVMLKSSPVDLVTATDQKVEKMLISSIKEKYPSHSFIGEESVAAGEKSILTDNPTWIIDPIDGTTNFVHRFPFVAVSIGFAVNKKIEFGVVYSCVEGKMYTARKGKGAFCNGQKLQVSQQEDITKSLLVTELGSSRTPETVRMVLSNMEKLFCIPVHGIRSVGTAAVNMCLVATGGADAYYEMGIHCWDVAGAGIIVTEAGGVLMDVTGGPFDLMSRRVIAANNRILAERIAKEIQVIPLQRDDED
UniProt O43159: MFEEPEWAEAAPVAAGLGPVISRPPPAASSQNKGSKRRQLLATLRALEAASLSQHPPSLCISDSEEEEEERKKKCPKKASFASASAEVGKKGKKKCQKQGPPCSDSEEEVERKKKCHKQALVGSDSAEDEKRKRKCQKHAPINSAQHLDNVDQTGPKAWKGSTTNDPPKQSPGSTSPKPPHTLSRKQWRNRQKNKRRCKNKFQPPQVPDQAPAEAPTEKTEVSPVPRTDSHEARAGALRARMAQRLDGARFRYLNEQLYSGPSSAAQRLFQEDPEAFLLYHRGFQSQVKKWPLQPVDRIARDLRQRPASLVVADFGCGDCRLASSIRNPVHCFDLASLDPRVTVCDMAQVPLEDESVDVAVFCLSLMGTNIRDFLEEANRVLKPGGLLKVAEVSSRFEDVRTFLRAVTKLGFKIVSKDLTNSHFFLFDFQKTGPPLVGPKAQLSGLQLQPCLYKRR
UniProt P38935: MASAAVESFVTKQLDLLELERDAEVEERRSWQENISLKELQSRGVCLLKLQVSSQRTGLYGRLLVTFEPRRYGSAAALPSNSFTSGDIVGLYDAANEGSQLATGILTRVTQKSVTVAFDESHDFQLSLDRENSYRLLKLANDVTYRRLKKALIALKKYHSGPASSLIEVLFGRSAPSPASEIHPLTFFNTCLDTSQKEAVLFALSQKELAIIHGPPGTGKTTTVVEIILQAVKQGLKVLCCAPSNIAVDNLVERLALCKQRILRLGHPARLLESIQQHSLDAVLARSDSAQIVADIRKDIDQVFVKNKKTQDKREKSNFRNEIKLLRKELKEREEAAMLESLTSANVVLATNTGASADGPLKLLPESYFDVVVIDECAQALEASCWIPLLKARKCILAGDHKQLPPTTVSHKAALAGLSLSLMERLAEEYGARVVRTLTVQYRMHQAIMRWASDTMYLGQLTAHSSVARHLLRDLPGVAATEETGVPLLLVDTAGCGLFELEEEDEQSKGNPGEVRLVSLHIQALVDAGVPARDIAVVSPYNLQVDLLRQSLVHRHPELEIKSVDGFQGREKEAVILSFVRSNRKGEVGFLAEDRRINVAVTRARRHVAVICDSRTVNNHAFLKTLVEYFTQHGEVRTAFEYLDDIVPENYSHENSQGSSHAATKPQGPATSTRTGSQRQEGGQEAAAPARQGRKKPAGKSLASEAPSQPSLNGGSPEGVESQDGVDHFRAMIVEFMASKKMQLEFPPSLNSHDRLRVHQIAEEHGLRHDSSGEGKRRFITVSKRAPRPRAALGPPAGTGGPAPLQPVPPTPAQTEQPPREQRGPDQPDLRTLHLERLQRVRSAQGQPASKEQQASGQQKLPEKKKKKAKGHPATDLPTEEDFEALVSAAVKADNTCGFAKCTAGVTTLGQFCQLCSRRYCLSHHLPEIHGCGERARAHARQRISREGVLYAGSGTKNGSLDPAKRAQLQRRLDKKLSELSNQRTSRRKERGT
UniProt Q9NSE4: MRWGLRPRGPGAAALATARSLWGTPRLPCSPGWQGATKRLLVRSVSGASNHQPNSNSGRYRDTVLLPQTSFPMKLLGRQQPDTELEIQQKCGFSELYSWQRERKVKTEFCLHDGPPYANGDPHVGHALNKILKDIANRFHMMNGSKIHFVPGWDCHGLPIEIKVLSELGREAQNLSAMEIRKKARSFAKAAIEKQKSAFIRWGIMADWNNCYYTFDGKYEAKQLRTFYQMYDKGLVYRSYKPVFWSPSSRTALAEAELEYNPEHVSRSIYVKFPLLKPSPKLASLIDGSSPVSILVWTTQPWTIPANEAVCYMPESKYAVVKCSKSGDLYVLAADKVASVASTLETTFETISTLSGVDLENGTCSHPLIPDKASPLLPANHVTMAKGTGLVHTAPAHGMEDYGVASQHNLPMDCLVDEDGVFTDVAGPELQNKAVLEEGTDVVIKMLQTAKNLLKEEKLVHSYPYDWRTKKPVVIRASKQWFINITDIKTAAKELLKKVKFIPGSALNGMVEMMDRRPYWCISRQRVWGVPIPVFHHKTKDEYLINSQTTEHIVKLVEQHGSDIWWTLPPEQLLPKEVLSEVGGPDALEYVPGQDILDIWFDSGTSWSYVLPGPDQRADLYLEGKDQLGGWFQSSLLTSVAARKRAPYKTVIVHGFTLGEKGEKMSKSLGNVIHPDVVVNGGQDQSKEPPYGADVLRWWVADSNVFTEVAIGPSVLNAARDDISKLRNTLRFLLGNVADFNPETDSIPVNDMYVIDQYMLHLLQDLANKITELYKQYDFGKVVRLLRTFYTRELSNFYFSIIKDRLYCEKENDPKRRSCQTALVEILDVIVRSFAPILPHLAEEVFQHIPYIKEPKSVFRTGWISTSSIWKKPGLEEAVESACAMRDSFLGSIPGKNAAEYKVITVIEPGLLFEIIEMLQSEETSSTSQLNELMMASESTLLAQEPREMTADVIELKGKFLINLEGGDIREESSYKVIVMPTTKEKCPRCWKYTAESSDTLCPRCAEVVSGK

This is one part of the list.

Compound in this experiment: COc1ccc(Cn2ccc3cc(C)c(C(=O)NO)cc32)cc1
The experiment is described as follows: dose-dependent thermal stabilisation call (2D-TPP, DLPTP, 10% FDR) (binary (1 = stabilised)); higher = stabilised by the compound. To be noted: system: HL-60 intact cells; concentration range 0.04-10 µM. The method, then:
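2D thermal proteome profiling in intact HL-60 cells treated with BRD-3811 (0, 0.04, 0.29, 2, 10 uM) for 90 min at 37 C, then heated 3 min at one of 12 temperatures (42-63.9 C). Soluble protein was quantified by TMT10 MS. The value is the DLPTP call of the paper: dose-dependent thermal stabilisation over all temperatures at 10% FDR (F-test of a dose-response against a flat model); one experiment, one call per tested protein.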
Regarding IGF2BP3 (UniProt O00425), the “dose-dependent thermal stabilisation call” value is inactive: 0.
As for KIF20B (UniProt Q96Q89), the figure is inactive: 0.
As for KLC1 (UniProt Q07866), the figure is inactive: 0; as for IGF2R (UniProt P11717), inactive: 0; as for ISOC2 (UniProt Q96AB3), inactive: 0.
Next, IMPA1 (UniProt P29218): inactive: 0; KIAA1632 (UniProt Q9HCE0): inactive: 0; KIAA0409 (UniProt O43159): inactive: 0.
For IGHMBP2 (UniProt P38935), the “dose-dependent thermal stabilisation call” value was inactive: 0.
Next, IARS2 (UniProt Q9NSE4): inactive: 0.
